According to patent US20250270200A1, “CTPS1 INHIBITORS AND USES THEREOF” (Nimbus Clotho, Inc., priority 2022, published 2025):

Target: human CTPS1 (Homo sapiens, UniProt P17812)
Test: ADP-Glo assay, human CTPS1 enzyme inhibition
Type: biochemical
Settings: read-out: ADP-Glo_WT_hCTPS1—25 nM_IC50 (IC50), wild-type human CTPS1, 25 nM enzyme
Experimental: The enzyme inhibitory activities of the compounds of the invention against the target of interest were determined using the ADP-Glo™ assay (Promega). Assays for human CTPS1 and CTPS2 were performed in 1× assay buffer containing 50 mM HEPES (Life Technologies), 10 mM Mg2+, 5 mM KCl, 2 mM DTT, 0.01% F-127, pH to 7.4 accordingly. All reagents are from Sigma-Aldrich, unless specified otherwise. Purified human full length active N-terminal FLAG-8×HIS-TEV tagged CTPS1 (UniprotKB—P17812, […]-CTPS1[1-591]) was generated using a mammalian expression system at Viva Biotech (Shanghai) Ltd.
Purified human CTPS1 protein was prepared in 1× assay buffer to the final working protein concentration required for the reaction. A 2.5 μL volume per well of human CTPS 1 protein was mixed with 0.1 μL per well of test compound dissolved in DMSO and pre-incubated at 25 degrees C. for 10 minutes. 2.5 μL per well of the reaction precursors ATP (UltraPure ATP from ADP-Glo™ kit) and UTP were then added and pre-incubated for an additional 10 minutes at 25 degrees C. Finally, the reaction was initiated by the addition of 5 μL of the reaction precursors L-glutamine and GTP. The final concentration of all reaction components in the assay: ATP (120 μM), UTP (160 μM), GTP (60 μM), L-Glutamine (100 μM), DMSO (1%), hCTPS1 (25 nM). This mixture was incubated for an appropriate amount of time within the determined linear phase of the reaction at 25 degrees C. under sealed plate conditions with constant agitation at 500 revolutions per minute (rpm). ADP-Glo™ reagent was added for 60 minutes (10 μL per well) and subsequently ADP-Glo™ development reagent was added for 60 minutes (20 μL per well) prior to signal detection in a microplate reader (Envision Multilabel Reader, Perkin Elmer). Following each reagent addition over the course of the assay, assay plates were pulse centrifuged for 1 minute at 1000 rpm.
The enzyme converts ATP to ADP and the ADP-Glo™ reagent subsequently depletes any remaining ATP in the reaction system. The ADP-Glo™ detection reagents converts the ADP that has been produced by the enzyme back into ATP, which is then utilized as a substrate together with luciferin for the enzyme luciferase. Light generated by this chemiluminescent reaction is quantified and is directly proportional to the amount of ADP produced by the CTPS1 enzyme reaction. […]

SMILES | IC50
C[C@H](CN1CCCCC1)[C@@H](NC(=O)c1ncc(-c2cnn3ccc(Cl)cc23)s1)c1cc(NS(=O)(=O)C2CC2)ccn1 | 5 to 25 nM
CCOc1cncc(-c2cnc(C(=O)N[C@@H](Cn3ccnn3)c3cc(NS(=O)(=O)C4CC4)ccn3)s2)n1 (single isomer, unassigned) | 25 to 50 nM
CCOc1cncc(-c2cnc(NC(=O)Cc3cc(NS(=O)(=O)C4CC4)ccn3)s2)n1 | > 100 nM and 50 to 100 nM
CCOc1cncc(-c2cc(F)c(C(=O)NCc3cc(NS(=O)(=O)C4CC4)ccn3)cc2F)n1 | 5 to 25 nM

Values joined by “and” are separate entries in the source; they are usually repeats but may differ in a detail not shown here. Equal values may be shown once. Structures were worked out from names or drawings and are uncertain.
